According to PubChem BioAssay AID540276 (National Center for Advancing Translational Sciences (NCATS), 2011):
“And” between values parts separate entries of the source, which are not always exact repeats. Identical values can stand only once. Among all 300,000 compounds or so, about 5,400 (1.8%) were called active. The shares of active, inactive and inconclusive entries below differ from those in the screen. Calls come from the whole dose curve; tested in HEK293 cells. Where the call is inconclusive, the potency comes from a doubtful curve fit.

Assay: qHTS for inhibitors of binding or entry into cells for Marburg Virus
Conditions: Marburg virus pseudotyped entry inhibition, cell reporter; activity change, negative = inhibition: at 37.8 µM (top of the series) unless noted
% is set by controls: 0 for no effect and ±100 for the full control effect; potency is the fitted concentration of half-maximal effect.

SMILES	Potency	activity change, negative = inhibition
COc1ccc(C(=O)Nc2nnc(-c3cccs3)s2)cc1	active: 3.16 µM	
Cc1c(C(=O)NC(C)c2ccccc2)c(-c2ccccc2)nn1-c1ccccc1 (stereo not given)	inconclusive: 12.6 µM [inhibitor, partial curve, poor fit]	
CCCOc1cccc(C2C(C(=O)c3cccs3)=C(O)C(=O)N2Cc2cccnc2)c1 (stereo not given)	inconclusive: 3.98 µM [inhibitor, full curve, poor fit]	
O=C1/C(=C/c2ccc([N+](=O)[O-])cc2)C=C(c2ccccc2)N1c1ccc(O)cc1		inactive: -29.3%
Cc1ccccc1C(=O)NC1CCN(Cc2nnnn2CCc2ccccc2)CC1		inactive: -12.2%
CNC(=O)CSc1nnc(COc2ccc([N+](=O)[O-])cc2)n1C	inconclusive: 6.31 µM [activator, partial curve, poor fit]	
Cc1ccccc1-n1c(N)c(C(=O)Nc2ccc(F)cc2)sc1=S	inconclusive: 0.562 µM [activator, full curve, poor fit]	
Cn1cnnc1SCc1nc(N)nc(Nc2ccccc2)n1	inconclusive: 6.51 µM [activator, single point]	
Cc1cc(C)cc(OCC(=O)Nc2cc(C)on2)c1		inactive: 2.22% [at 46.1 µM]
Cc1ccc(S(=O)(=O)N(CC(=O)N=Nc2c(O)[nH]c3ccccc23)c2cccc(C)c2)cc1	inconclusive: 35.5 µM [inhibitor, single point]	
CN1c2ccsc2C(=O)/C(=C\Nc2cccc(C(F)(F)F)c2)S1(=O)=O		inactive: 3.09%
Cn1cc(P(=S)(N2CCOCC2)N2CCOCC2)cc1P(=S)(N1CCOCC1)N1CCOCC1		inactive: 5.52% [at 46.1 µM]
CC(C)C(=O)NC(=S)Nc1ccccc1C(F)(F)F		inactive: -16.9%
O=C(/C=C/c1ccccc1O)c1ccco1		inactive: -24.6%
O=C(Nc1ccc2c(c1)CCC2)c1ccccc1Br	inconclusive: 7.94 µM [inhibitor, partial curve, poor fit]	
CCOC(=O)c1ccc(-c2cccc(C(F)(F)F)c2)nc1C		inactive: 14%
O=C1c2ccccc2S(=O)(=O)N1CC1CC(c2ccccc2Cl)=NO1 (stereo not given)	inconclusive: 35.5 µM [activator, partial curve, poor fit]	
Cc1[nH]c2ccc(Cl)cc2c(=O)c1CN1CCCC1	inconclusive: 10 µM [inhibitor, partial curve, poor fit]	
NC(=O)C12CCCC(Br)(CCC1)C2	inconclusive: 5.01 µM [inhibitor, single point]	
CCCCNC(=O)C(NS(=O)(=O)c1cccc2nsnc12)c1ccccc1 (stereo not given)	inconclusive: 0.92 µM [inhibitor, full curve, poor fit]	
Cc1ccc(S(=O)(=O)N2c3cc(C)ccc3OCC2C(C)(C)C)cc1 (stereo not given)	inconclusive: 29.1 µM [inhibitor, single point]	
COC(=O)c1cccc(C(=O)Nc2cnc3ccccc3c2)n1	inconclusive: 35.5 µM [inhibitor, single point]	
C=CCN1CC[C@@]2(C)c3cc(O)ccc3CC1[C@@H]2C	inconclusive: 0.891 µM [inhibitor, full curve, poor fit]	
O=c1nc(-c2ccccc2)n(-c2ccccc2)[nH]1	inconclusive: 2.24 µM [activator, full curve]	

SMILES	Potency	activity change, negative = inhibition
CCN(CC)C(=S)SCC(=O)c1ccc(Br)cc1		inactive: -11.3%
Cc1sc(NC(=O)c2cccc([N+](=O)[O-])c2)c(C(N)=O)c1-c1ccc(C(C)(C)C)cc1	inconclusive: 10 µM [activator, partial curve, poor fit]	
O=C(CCc1ccccc1)NC(=S)Nc1ccc(S(=O)(=O)N2CCOCC2)cc1	inconclusive: 35.5 µM [inhibitor, partial curve, poor fit]	
O=C1CC(C(=O)Nc2cc(Cl)ccc2Cl)n2ncnc2N1 (stereo not given)		inactive: -14.4% [at 46.1 µM]
CCc1ccc(C2CC(c3ccco3)=NN2S(C)(=O)=O)cc1 (stereo not given)	inconclusive: 8.91 µM [inhibitor, partial curve, poor fit]	
O=C(Nc1nccs1)c1cccc(N2C(=O)c3cccc4c([N+](=O)[O-])ccc(c34)C2=O)c1	inconclusive: 20 µM [inhibitor, single point]	
CCOC(=O)N1CCN(S(=O)(=O)c2ccc(C(=O)Nc3ccc(F)cc3F)cc2)CC1	inconclusive: 0.411 µM [inhibitor, full curve, poor fit]	
Cc1nn(Cc2noc(C(=O)NCc3cccc(F)c3)n2)c(C)c1Br		inactive: 4.36% [at 46.1 µM]
CN(C)c1ccc(N/C=C/C(=O)c2ccco2)cc1	active: 3.66 µM	
CSCCC(NS(=O)(=O)c1ccc2c(c1)oc(=O)n2C)C(=O)NCc1ccc(F)cc1 (stereo not given)	inconclusive: 17.8 µM [activator, partial curve, poor fit]	
COc1ccc(NC(=O)c2sc3nc(C)c(C(=O)Nc4ccc(C)cc4C)c(-c4ccccc4Cl)c3c2N)cc1	inconclusive: 22.4 µM [inhibitor, partial curve, poor fit]	
O=C(Nc1ccccn1)c1cccs1	inconclusive: 14.1 µM [activator, partial curve]	
CC1(C)CC2CC(C)(CN2/C=N/c2sc3c(c2C#N)CC(C)(C)NC3(C)C)C1 (stereo not given)	inconclusive: 28.2 µM [inhibitor, single point]	
Cc1ccc(/C=N/Nc2nc(C(C)(C)C)cs2)o1		inactive: -18.9%
Brc1ccc(-c2noc(-c3ccccc3)n2)o1	inconclusive: 2.82 µM [activator, partial curve, poor fit]	
COCCNC(=O)CCCn1c(=O)[nH]c2ccsc2c1=O		inactive: 19.9% [at 46.1 µM]
Cc1ccc(NC2=C(NC(=O)c3ccccc3)C(=O)c3ccccc3C2=O)cc1Cl	inconclusive: 22.4 µM [inhibitor, single point]	
c1ccc2c(c1)[nH]c1nc3nncn3nc12	inconclusive: 20.6 µM [activator, single point]	
NS(=O)(=O)c1cccc(NC(=O)CN2CCc3ccccc32)c1		inactive: -6.07% [at 46.1 µM]
CCCCn1c(SCc2c(C)noc2C)nc2cc(S(N)(=O)=O)ccc21	inconclusive: 10 µM [inhibitor, partial curve, poor fit]	
CC(=O)Nc1ccc(NC(=O)c2ccc(CN3CCc4ccccc4C3)cc2)cc1	inconclusive: 35.5 µM [inhibitor, single point]	
CC(=O)Nc1ccc(NS(=O)(=O)c2cc(Br)cc3c2N(C(=O)C2CC2)CC3)cc1		inactive: -1.92% [at 46.1 µM]
Cc1c(CCO)sc[n+]1CC(=O)OC12CC3CC(CC(C3)C1)C2	inconclusive: 35.5 µM [inhibitor, single point]	
O=C(O)CCC(=O)Nc1cccc(C(=O)Nc2ccc(Br)cc2)c1	inconclusive: 35.5 µM [activator, single point]	

SMILES	Potency	activity change, negative = inhibition
O=C(NCc1ccccc1)C1C(=O)N(Cc2ccccc2)C(=O)C1C1(O)CCCC1 (stereo not given)	inconclusive: 35.5 µM [activator, single point]	
Cc1ccc(C(=O)CSc2ccccn2)cc1		inactive: -2.08%
CNC(=O)C12CC3CC(C1)CC(c1ccc(C)cc1)(C3)C2		inactive: 0.296%
CCc1noc(C)c1C(=O)N1CCC(CCC(=O)Nc2cccc(C)c2)CC1	inconclusive: 6.31 µM [inhibitor, full curve, poor fit]	
COc1cc(C(=O)OCC(=O)Nc2cc(C)on2)ccc1OCc1ccccc1Cl	inconclusive: 3.16 µM [inhibitor, partial curve, poor fit]	
Cc1cc(C(=O)CSc2nnc(CCC(N)=O)n2C)c(C)n1C1CC1		inactive: 5.46%
CCOc1ccc2c(S(=O)(=O)O)cccc2c1[N+](=O)[O-]		inactive: 10%
Cc1ccc(NC(=O)N/C=C/c2ccco2)cc1C		inactive: 4.09%
CCOC(=O)c1ccc(NC(=S)N2CCSC2c2ccc(Br)cc2)cc1 (stereo not given)		inactive: 6.97%
C/C=C/c1ccc(OCCCCNCc2ccco2)c(OC)c1	inconclusive: 22.4 µM [inhibitor, partial curve, poor fit]	
CCOc1ccc(NC(=O)NNC(=O)c2ccc(CC)s2)cc1	inconclusive: 2.59 µM [activator, partial curve, poor fit]	
Cc1noc(N)c1C(=O)Nc1ccccc1F		inactive: -1.53%
CCOC(=O)c1[nH]cc(-c2ccccc2)c1N1CCOCC1	inconclusive: 35.5 µM [inhibitor, partial curve, poor fit]	
Cc1ccc(NC(=S)N(CCCN2CCC(C)CC2)Cc2ccco2)cc1	inconclusive: 22.4 µM [inhibitor, single point]	
Cc1ccc(S(=O)(=O)c2cc3ccccc3oc2=Nc2ccc3c(c2)OCCO3)cc1	inconclusive: 0.1 µM [inhibitor, full curve, poor fit]	
COc1ccc(-c2cc(C(=O)N/N=C(\C)c3ccco3)c3ccccc3n2)c(OC)c1	inconclusive: 35.5 µM [inhibitor, single point]	
Cc1ccc(NC(=O)c2ccccc2)cc1OC(=O)c1ccccc1		inactive: 8.39%
Cc1cc(C)n2nc(SCC(=O)c3ccccc3)nc2n1	inconclusive: 18.3 µM [activator, partial curve, poor fit]	
COc1ccc(-c2nc(SC)n(S(=O)(=O)c3ccccc3)n2)cc1	inactive and inconclusive: 12.6 µM [activator, single point]	
Cc1nc2ccccc2cc1OCc1ccc(F)cc1	inconclusive: 9.2 µM [inhibitor, partial curve]	
CC(C)Oc1ccc(C(=O)Nc2cccc(S(=O)(=O)N3CCCC3)c2)cc1	inconclusive: 35.5 µM [inhibitor, single point]	
Cc1cc(NC(=O)c2ccc3c(c2)C(=O)N(CCC(C)C)C3=O)no1		inactive: -6.75%
